Measured values taken from patent US8362090B2, “Methods and related compositions using specific flavonoids and indanes to reduce weight and inhibit lipase, α-amylase and α-glucosidase activity in mammals” (Gateway Health Alliances, Inc., priority 2007, dated 2013).
At least one compound was matched to its structure with a doubt left.

Target: T1, porcine pancreatic amylase (Sus scrofa, UniProt P00690)
T1 construct: purchased Sigma A6255
T1 sequence (P00690 16-511): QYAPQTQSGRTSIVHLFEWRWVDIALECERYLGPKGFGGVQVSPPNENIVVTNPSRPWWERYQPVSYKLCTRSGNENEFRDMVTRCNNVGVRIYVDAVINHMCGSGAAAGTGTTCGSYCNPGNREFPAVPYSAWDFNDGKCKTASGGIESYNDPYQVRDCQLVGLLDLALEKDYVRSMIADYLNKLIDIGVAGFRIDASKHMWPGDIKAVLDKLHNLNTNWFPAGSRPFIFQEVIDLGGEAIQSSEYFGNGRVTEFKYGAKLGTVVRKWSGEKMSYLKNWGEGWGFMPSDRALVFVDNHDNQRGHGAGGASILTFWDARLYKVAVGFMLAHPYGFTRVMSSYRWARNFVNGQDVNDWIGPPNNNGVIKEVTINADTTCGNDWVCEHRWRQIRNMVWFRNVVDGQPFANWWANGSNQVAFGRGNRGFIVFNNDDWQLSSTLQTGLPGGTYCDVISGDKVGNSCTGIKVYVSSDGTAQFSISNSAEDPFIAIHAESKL
Assay: Amylase assay (Sigma INFINITY reagent)
Assay type: biochemical, pig
Settings: tested at 0.12 mg/ml, mean n=3
Experimental: The purified compounds and extracts were made up 2 mg/ml solutions in water using initially a drop of DMSO if required for solubility.
Sigma INFINITY Powder Reagent (Catalogue Number 568-20)
Sigma α-amylase (A6255, porcine pancreatic amylase as saline suspension), diluted to 35 units/ml. […] The rate of color formation was measured over five minutes, after which the final absorbance was measured at 405 nm as an endpoint recording.

## C[C@@H]1O[C@@H](Oc2c(-c3ccc(O)c(O)c3)oc3cc(O)cc(O)c3c2=O)[C@H](O)[C@H](O)[C@H]1O [compound 1, quercitrin]
  α-amylase inhibition (in words, FIG. 2): decrease in α-amylase inhibition
